Results of single-concentration screens

The values are deposited in ChEMBL (CHEMBL3988442, “University of Dundee, Small-Polar-MMV Screening Library” (2021)).

Results are given as percent effect.
The controls that fix the scale are not given in the record; negative values are as filed.
The compounds are a random part of those screened.
Two or more numbers in one place are separate tests of the same structure; such repeats can differ widely.

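Phenotypic screen: M. tuberculosis growth, glucose 7H9 medium, 3 days; the read-out is not stated. Concentration: 50 µM. Direction is inferred from retests: higher values go with more growth inhibition. About 69,000 compounds were tested under these conditions; 1.1% (about 760) showed 50% or more at least once.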

structure,Percent Effect
N#Cc1ccc(F)cc1Cn1cnc(C2CCC2)cc1=O,-22.54%
Cc1nc(CCN)cc(N2CCC(O)(c3ccccc3)C2)n1 (centres undefined),25.12%
COc1cccc(-c2cc(NCc3nccn3C)n(C)n2)c1,26.85%
CCCOCC(=O)N1CCCC(c2nnc(CN3CCCCC3)n2C)C1 (centres undefined),-1.174%
Cc1ccnc(C2(C)CCCN2S(=O)(=O)c2ccccc2)n1 (centres undefined),11.55%
CN(C)C(=O)CC1CC2(CCN(C(=O)N(C)C)CC2)Oc2ccccc21 (centres undefined),0.4013%
[H][C@@]12COC[C@]1(c1nc(C)no1)CN(S(=O)(=O)C1CC1)C2,-9.077% & -5.651%
O=C(O)Cn1nc(C2CC2)c2c(-c3ccco3)ccnc21,-8.131%
Cc1cc(=O)n(CC(=O)NC(C)C)c(Nc2ccc(F)c(C)c2)n1,-28.13%
N#CCc1ccc(OCC(=O)NS(=O)(=O)c2cccs2)cc1,1.805% & -8.588%
Cc1cccnc1NC(=O)C1CCN(C(=O)C(C)C)CC1,13.26%
O=C1CCC(=O)N1c1nn(Cc2ccccc2)cc1Cl,-13.84%
O=C(c1ccco1)N1CCOCC2(C1)CN(c1ccccn1)C(=O)CO2 (centres undefined),3.881%
Cl.Cl.c1csc(CN2CCc3c(CNc4nncs4)cncc3C2)c1,-15.95%
c1ccc(C(CNc2ncccn2)N2CCOCC2)nc1 (centres undefined),3.684%
CC(C)C1CCCN1CCCc1nc(-c2cccs2)no1 (centres undefined),9.832%
CC(=O)N1CCC(N2CC[C@H](c3nc4cc(F)ccc4o3)C2)CC1,7.025% & 0.2576%
Cc1ccc(NC(=O)N2CC(C(=O)NC(C)C)C3(CCOCC3)C2)cc1 (centres undefined),-4.901%
CC(C)c1nnc2n1CCN(Cc1cccc3c1OCCO3)C2,0.661%
O=C(O)C(F)(F)F.[H][C@@]12CCC(=O)N(c3ccccc3)[C@]1([H])CCN2C(=O)c1cccc(C)n1,-53.41%
CN1CC(=O)N(c2ccccc2)CC12CCN(S(C)(=O)=O)C2.O=C(O)C(F)(F)F (centres undefined),-22.87%
Cc1cc(CN(C)C(=O)C2CCCN(C(N)=O)C2)no1 (centres undefined),3.077% & 4.472%
O=c1c2ccccc2nc2n1CCN(Cc1cccs1)CC2,48.1%
O=C(O)C(F)(F)F.O=C(O)C(F)(F)F.c1ccc(CCN2CCn3cc(Cn4cccn4)nc3C2)cc1,-4.673%
Cc1ccccc1CNCc1cc(Cl)ccc1O,7.716% & 3.72%
Cc1noc(CCCC(=O)N(CC2CCOC2)C2CC2)n1 (centres undefined),4.393%
Cc1cnn(CC(C)NCc2ccc(OCc3nccn3C)cc2)c1 (centres undefined),-31.27%
Cc1noc(C)c1-c1ccnc(C2CCN(C3CCOCC3)CC2)c1,-38.7%
O=C(O)C(F)(F)F.[H][C@@]12OCCN(Cc3ccco3)[C@@]1([H])CC[C@H]2OCC1CCCC1,-1.171%
Cc1ccc(C(=O)N2CC(C)(C)[C@@](C)(O)C2)cc1N1CCNC1=O,-18.14%
CC(C)c1nccc(-c2nccn2CCN(C)S(C)(=O)=O)n1,-35.28% & -8.593%
N[C@H]1CN(CCCOc2ccccc2)C[C@@H]1C1CC1,21.46%
CCS(=O)(=O)N1CCC2(CC1)CN(C(=O)N(C)C)Cc1ccccc12,0.9075%
CC(C)c1ccc(-n2ncc(C(=O)NCC3COC(C)(C)O3)c2N)cc1 (centres undefined),20.23%
CCN(CC1CCCO1)C(=O)Nc1cccc(N2CCOCC2)c1 (centres undefined),16.91%
CN1CCC(NN2CCN(C)CC2)CC1,-12.78%
CC(=O)N1CCCN(Cc2cc(F)cc(Br)c2)CC1,-23.31%
COC(=O)c1ccc(N2CCN(C(=O)c3ccco3)C(C)C2)cc1 (centres undefined),9.8% & -6.942%
CCCNC(=O)C(C)Nc1ccn(Cc2ccccn2)n1 (centres undefined),2.222%
Cc1noc(NC(=O)c2ccc(OC(F)(F)F)cc2)n1,98.69%
[H][C@]12CCN(Cc3ccc(OCC)c(CO)c3)C[C@]([H])(CC1)N2,6.236% & 5.723%
Cc1cc(C(F)(F)F)cc(N2C[C@@H](CN(C)CCO)[C@@H](CO)C2)n1,-10.34%
CC(=O)c1cc(C(=O)NC2(c3ccc(Br)cc3)CC2)n(C)c1,6.181%
O=C(O)C(F)(F)F.[H][C@@]12OCCN(CC3CCOCC3)[C@@]1([H])CC[C@H]2OCC1CCCC1,-18.51%
CSc1ccc(NC(=O)Cc2cccc(O)c2)nc1,-7.748%
CC1CCc2nn(CCNC(=O)Cc3cccs3)c(=O)cc2C1 (centres undefined),-11.96%
[H][C@]12CC[C@]([H])(CN(C)C1)N(C(=O)c1ccc(OC)c(Cl)c1)C2,-43.66% & -14.18%
Cc1cnc(N2CCCC3(COCCN(c4ccc(C)nn4)C3)C2)nc1 (centres undefined),15.16%
O=C(O)C(F)(F)F.O=C(O)C(F)(F)F.[H][C@@]12OCCN(Cc3cc(C)on3)[C@@]1([H])CC[C@H]2OCc1csc(C)n1,10.59%
Cc1cc(NCCC(=O)NC(C)C)nc(-c2ccncc2)n1,68.7%
O=C(CN1CCCC1Cn1cncn1)NC(C1CC1)C1CC1 (centres undefined),12.47% & 8.46%
Cn1cc(C2CCCN2Cc2csc(Cc3ccccc3)n2)cn1 (centres undefined),8.673%
O=C(Cn1nc(-c2ccc(F)cc2)oc1=O)NCc1ccccc1F,9.038%
O=C(CC1CC2(CCN(CC3CC3)CC2)Oc2ccccc21)NC1CC1.O=C(O)C(F)(F)F (centres undefined),-17.04%
Cc1noc(C(C)N2CCN(Cc3noc(C4CC4)n3)CC2)n1 (centres undefined),-14.44% & 8.654%

Some entries from above, unchanged:

structure,Percent Effect
Cc1cc(C(F)(F)F)cc(N2C[C@@H](CN(C)CCO)[C@@H](CO)C2)n1,-10.34%
O=C(O)C(F)(F)F.[H][C@@]12OCCN(Cc3ccco3)[C@@]1([H])CC[C@H]2OCC1CCCC1,-1.171%
O=C(O)C(F)(F)F.O=C(O)C(F)(F)F.[H][C@@]12OCCN(Cc3cc(C)on3)[C@@]1([H])CC[C@H]2OCc1csc(C)n1,10.59%
CC(=O)N1CCC(N2CC[C@H](c3nc4cc(F)ccc4o3)C2)CC1,7.025% & 0.2576%
Cc1nc(CCN)cc(N2CCC(O)(c3ccccc3)C2)n1 (centres undefined),25.12%
O=C(c1ccco1)N1CCOCC2(C1)CN(c1ccccn1)C(=O)CO2 (centres undefined),3.881%
CC(=O)N1CCCN(Cc2cc(F)cc(Br)c2)CC1,-23.31%